Assay results: patent publication US11155612
Changes are numbered by the printed parent chain. Names and notes keep the numbering of the source. Results are given in words; binding and its absence hold for the method and conditions named. Some binding calls cover weakened binding; strength is not graded here. Blank lines part the entries; values can stand above or below the binder they belong to.

Chains of the proteins cited; added tags and fusions are not shown. Lines headed by an entry give the natural chain unless they say otherwise; changes in a name come on top. A line that says so, or that is headed by a name, gives the form on record, which may keep a tag or linker.
VEGF165 (P15692, form named): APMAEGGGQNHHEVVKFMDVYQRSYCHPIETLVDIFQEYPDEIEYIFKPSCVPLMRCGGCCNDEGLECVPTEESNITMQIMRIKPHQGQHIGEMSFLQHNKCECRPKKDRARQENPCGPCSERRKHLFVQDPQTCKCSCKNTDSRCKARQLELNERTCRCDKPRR

Target: VEGF165 (UniProt P15692)
Assay: ELISA, plates coated with VEGF165, dilutions of vNAR

binding: binds
B1: vNAR P98Y (clone M1), anti-VEGF vNAR of SEQ ID NO:1 (protein)
chain: ASLDQTPRTATRETGESLSINCVLTDTSHILFGTKWLWNNPGSTDWESITIGGRYAESVNNQAKSFSLQIKDLTVEDSGTYYCKAQTIGRRKNLLPRYLVNGIAAMGYSSSDYDGAGTVLTVN

binding: binds
B2: vNAR V13 (parental sequence) (protein)
chain: B1 chain with Y98P
